From US10745487B2, “Method of treating cancer by administering an anti-LGR5 monoclonal antibody” (Bionomics Limited, priority 2016, dated 2020)

System: LGR5 in skin progenitors and skin
Conditions: 10, 50 and 150 mg/kg at day 0, 7, 14 and 21

18G7H6A3
LGR5 frequency in skin progenitors vs. vehicle (flow cytometry): no significant difference in LGR5 frequency
LGR5 positive area in skin vs. vehicle (RNAscope): no significant difference in LGR5 positive area
